# The other results are listed elsewhere or left out.
# Sequences of proteins named here, by UniProt entry; tags and fusion partners are left off.
# UniProt Q0JBA9, entry or part of it: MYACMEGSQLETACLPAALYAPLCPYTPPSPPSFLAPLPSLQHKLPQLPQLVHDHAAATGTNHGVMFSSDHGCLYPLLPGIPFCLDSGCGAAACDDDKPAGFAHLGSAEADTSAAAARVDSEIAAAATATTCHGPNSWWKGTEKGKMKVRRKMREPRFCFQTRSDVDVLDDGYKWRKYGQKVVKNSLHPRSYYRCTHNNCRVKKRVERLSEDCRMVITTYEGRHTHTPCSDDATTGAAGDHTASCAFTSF
# Target: OsWRKY34 (Oryza sativa, UniProt Q0JBA9 1-250)
# Assay: protein-binding microarray (RPBM); PBS, 2% BSA, 51.3 ng/ul salmon testes DNA, 50 uM zinc acetate, 200 nM TF, 25 C, 1 h; high values mean tight binding
# Details: protein: recombinant; tags: N-terminal polyhistidine and DsRed monomer fusion (pET32a); label: CyDye5-dUTP incorporated in the synthesized complementary strand; 3' TTTTT single-stranded linker to array surface; dsDNA, one strand shown
# In short: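 Transcription factors were each fused at the N-terminus to a polyhistidine tag plus DsRed and expressed in E. coli BL21-CodonPlus before Ni–NTA purification. Binding to a double-stranded custom Agilent array was carried out with 200 nM protein at 25 °C for 1 h in PBS, 2% BSA, salmon testes DNA and 50 µM zinc acetate. The binding signal is per-feature fluorescence intensity, in arbitrary units, on an Axon 4000B scanner.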
row,Sequence,binding signal
1,CTTCCACTGTGTTCCTAATTCCTTCCCTGCAATTATTGGTCGGAGTCACCTAGTGCAG,9780 fluorescence intensity (a.u.)
2,GCTATCATTTCAGCTGGTTAGCCATGTCGGGCCAGCTCGACGGAGTCACCTAGTGCAG,8580 fluorescence intensity (a.u.)
3,AGGGTATTGCAGCTCTAATTAATTACTCAAGTGTGTGTGCCGGAGTCACCTAGTGCAG,8240 fluorescence intensity (a.u.)
4,GTGTATCAGCATCATCGTCGTACTAGTGTCCATTTAATTACGGAGTCACCTAGTGCAG,8410 fluorescence intensity (a.u.)
5,CCAATTTGACTCTGATTTTGTCACTCTGCTTATTTGCCCACGGAGTCACCTAGTGCAG,9340 fluorescence intensity (a.u.)
6,CCTACCGAGCTGCCGCCGCCTCACGTACGCCAACAACGTTCGGAGTCACCTAGTGCAG,9190 fluorescence intensity (a.u.)
7,TCTGCGACGCCGTATCTCTGTCCATCTGTCGTCTTGAAAACGGAGTCACCTAGTGCAG,9340 fluorescence intensity (a.u.)
8,GGAGAGGAGAGGAAAAATTCTACATGTCACATATTACGTCCGGAGTCACCTAGTGCAG,8380 fluorescence intensity (a.u.)
9,ATCTCTTACTCCGCATGCATATGGTCCTGTTCAAAAATGTCGGAGTCACCTAGTGCAG,8030 fluorescence intensity (a.u.)
10,GGTTGTAACAACTTGGTATCAGTTGCTTTCGGTCCTGTTTCGGAGTCACCTAGTGCAG,8420 fluorescence intensity (a.u.)
11,ACTTCTCTCTCCCATCCTCTCCTGATATTTTAACTTTCACCGGAGTCACCTAGTGCAG,8940 fluorescence intensity (a.u.)
12,GTTATATCATATTAGGGGCATTTCTCATAGACAATTGTCACGGAGTCACCTAGTGCAG,11200 fluorescence intensity (a.u.)
13,CTCCACTCCAACTCCACCGTTGCTCCCACCAAACCTCCCACGGAGTCACCTAGTGCAG,8550 fluorescence intensity (a.u.)
14,GTGGGGATTGGAGTTGGAAAAGTTTTACTTTCACAGTGATCGGAGTCACCTAGTGCAG,8090 fluorescence intensity (a.u.)
15,TTTCCAACCTGATCGGGTGCTGCCTTTTCATTCTTCCCTCCGGAGTCACCTAGTGCAG,8430 fluorescence intensity (a.u.)
16,CTTCGCTGCCAGTCACAACACCCATCTTCGTCGCCGCCCACGGAGTCACCTAGTGCAG,8190 fluorescence intensity (a.u.)
17,CTATCAGAATTCAGAGCACTGGGGTTTTGCAACTATTTATCGGAGTCACCTAGTGCAG,10600 fluorescence intensity (a.u.)
18,ACTGGTTTTCTTTTTAATCAACTCTCGTTTCATAAACGGGCGGAGTCACCTAGTGCAG,8220 fluorescence intensity (a.u.)
19,GCTCGGTTTGGAGAGGGGTTTTTGGTTTCTCGGCACCACGCGGAGTCACCTAGTGCAG,8570 fluorescence intensity (a.u.)
20,CCTTCCATCACCATCTTTGCACATCATCTCTACAGTGCATCGGAGTCACCTAGTGCAG,10600 fluorescence intensity (a.u.)
21,ACCGCCTCTCTCTCTATCTCCCCGTCGCTAGCTACCAGCACGGAGTCACCTAGTGCAG,8100 fluorescence intensity (a.u.)

# A different layout for some results above.
row	Sequence	binding signal
2	GCTATCATTTCAGCTGGTTAGCCATGTCGGGCCAGCTCGACGGAGTCACCTAGTGCAG	8580 fluorescence intensity (a.u.)
3	AGGGTATTGCAGCTCTAATTAATTACTCAAGTGTGTGTGCCGGAGTCACCTAGTGCAG	8240 fluorescence intensity (a.u.)
4	GTGTATCAGCATCATCGTCGTACTAGTGTCCATTTAATTACGGAGTCACCTAGTGCAG	8410 fluorescence intensity (a.u.)

# Next records

row,Sequence,binding signal
1,CTCTCTTCCATTCCGCCTCGCCTCGCCTCGCCTCTCGCGGCGGAGTCACCTAGTGCAG,8360 fluorescence intensity (a.u.)
2,AGATCCACCCGCACCTGCTCCAAATCGCGCCTCTCTTGTGCGGAGTCACCTAGTGCAG,8800 fluorescence intensity (a.u.)
3,TGCGCCATTTTTTCTTTTTCTTTTTCGTTTTGTTTTTTTTCGGAGTCACCTAGTGCAG,16300 fluorescence intensity (a.u.)
4,AGTAAGAGATCTCAAATTGATATGGGTTCTTGTTTTATATCGGAGTCACCTAGTGCAG,8150 fluorescence intensity (a.u.)
5,CGCATGCACACTTTAATCTATACCAACGGAAAATTTTCCACGGAGTCACCTAGTGCAG,8390 fluorescence intensity (a.u.)
6,AATATTCCTTACTTTTTAATTTCGAATTTCAGCTATTTCTCGGAGTCACCTAGTGCAG,10500 fluorescence intensity (a.u.)
7,AAGGAGGCGTTATACCCAGTTTTCCGGTTGAGGGATGTTACGGAGTCACCTAGTGCAG,10900 fluorescence intensity (a.u.)
8,AATCTTTCTATCGTATAAGCATGTTGCATTTAGTGCACTTCGGAGTCACCTAGTGCAG,9800 fluorescence intensity (a.u.)
9,ATCGGGTGATAGTGCGCAGGGGTGATCAGATTAGGTGGCCCGGAGTCACCTAGTGCAG,8240 fluorescence intensity (a.u.)
10,AACTGAAAGTTCATTCTCTGCGCGGTCTGGGTCTACTCCTCGGAGTCACCTAGTGCAG,8830 fluorescence intensity (a.u.)
11,CTTAGCCCAACTCAACATTTTGCTGTCTCGCGTTTCCGCGCGGAGTCACCTAGTGCAG,11000 fluorescence intensity (a.u.)
12,TCATTCATATACCATCAATGTTTCATTTCCATTTTCCGAACGGAGTCACCTAGTGCAG,10800 fluorescence intensity (a.u.)
13,TGTTGTCGCTGTTCCCGTGCTGCTCCTGTCTCTCGCAGGGCGGAGTCACCTAGTGCAG,9070 fluorescence intensity (a.u.)
14,ATTTCTGCCTCATTGACAAGAAGGGCCCACATCCATCGCACGGAGTCACCTAGTGCAG,8440 fluorescence intensity (a.u.)
15,GGGAAATTTAACTATTTGTCACATTTAGGTTTTTCAATTACGGAGTCACCTAGTGCAG,8270 fluorescence intensity (a.u.)
16,TTCTTTTGAGTTTATTTCTCTTATCTGATTCCTATGTTTTCGGAGTCACCTAGTGCAG,9990 fluorescence intensity (a.u.)
17,TCAACACCACCATCGCCGTCGTGTTCTCCGCGCTCGCTGTCGGAGTCACCTAGTGCAG,10100 fluorescence intensity (a.u.)
18,TCCGCTTGCATATGGCACAGAAACACACTGACACGCATTCCGGAGTCACCTAGTGCAG,9010 fluorescence intensity (a.u.)
19,TCTTTCTCTCTCTTGCTGCCGTTGAGGGATTTGGGGTGAACGGAGTCACCTAGTGCAG,10000 fluorescence intensity (a.u.)
20,TCCCAGATCTTACGTCGTTTACTTTTTTTAAACATATTTACGGAGTCACCTAGTGCAG,10300 fluorescence intensity (a.u.)
21,CTTCACTTTTCCACGGTATCCCGTGAGCTAGCTGCCCTCACGGAGTCACCTAGTGCAG,8640 fluorescence intensity (a.u.)

# — PMC7819943, “Rice protein-binding microarrays: a tool to detect cis-acting elements near promoter regions in rice”
